Results from one PubChem assay

Source: PubChem BioAssay AID1053133 (Broad Institute, 2014).

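Vaccinia-infected cells with a two-color viral stage reporter; Venus fluorescence read on a plate reader; the cell line is not named here; timing not stated here. The test concentration is not given here. Percent change in Venus reporter signal; lower (more negative) values mean stronger inhibition of that viral stage.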

Values are in %. How 0% and 100% were set is not given here. Common to all entries: measured here: Venus reporter, other viral stage. This is a side read-out of the assay, for part of the compounds, not drawn at random.

| # | structure | activity change (Venus) (%) |
|---|---|---|
| 1 | `C[C@@H]1CN([C@@H](C)CO)C(=O)c2cccc(N(C)C)c2O[C@H]1CN(C)Cc1ccc(Cl)c(Cl)c1` | -39.09 |
| 2 | `Cc1noc(C)c1S(=O)(=O)Nc1ccc2c(c1)C(=O)N([C@@H](C)CO)C[C@H](C)[C@H](CN(C)S(=O)(=O)c1ccccc1)OCCCC[C@H](C)O2` | -22.66 |
| 3 | `C[C@@H]1CN([C@@H](C)CO)C(=O)c2cc(NC(=O)Nc3ccc4c(c3)OCO4)ccc2O[C@@H]1CN(C)Cc1ccc(Cl)c(Cl)c1` | -49.19 |
| 4 | `C[C@@H]1CN([C@@H](C)CO)C(=O)Cc2cc(NS(=O)(=O)c3ccc(Cl)cc3)ccc2O[C@H]1CN(C)Cc1ccc2c(c1)OCO2` | -44.97 |
| 5 | `O=C(C1CC1)N1CC(=O)N2[C@H](CO)[C@H](c3ccc(C#CC4CCCC4)cc3)[C@H]2C1` | -67.13 |
| 6 | `Cc1ccc(S(=O)(=O)Nc2ccc3c(c2)C(=O)N([C@@H](C)CO)C[C@H](C)[C@@H](CN(C)C(=O)c2ccccc2)OCCCC[C@@H](C)O3)cc1` | -29.58 |
| 7 | `O=C(C[C@H]1C[C@@H]2c3cc(NC(=O)Nc4ccc(C(F)(F)F)cc4)ccc3O[C@@H]2[C@@H](CO)O1)NCc1ccc2c(c1)OCO2` | -48.28 |
| 8 | `C[C@@H]1CN([C@@H](C)CO)C(=O)Cc2cc(NC(=O)C3CCCCC3)ccc2O[C@H]1CN(C)Cc1ccc(Oc2ccccc2)cc1` | -36.95 |
| 9 | `C[C@H]1CN([C@@H](C)CO)S(=O)(=O)c2ccc(Br)cc2O[C@H]1CN(C)Cc1ccccc1` | -19.38 |
| 10 | `CCCNC(=O)N(C)C[C@@H]1Oc2cc(C#Cc3cccc(F)c3)ccc2S(=O)(=O)N([C@H](C)CO)C[C@H]1C` | -43.82 |
| 11 | `COc1ccc(S(=O)(=O)Nc2ccc3c(c2)C(=O)N([C@H](C)CO)C[C@@H](C)[C@@H](CN(C)C(=O)C2CCCCC2)OCCCC[C@@H](C)O3)cc1` | -73.92 |
| 12 | `C[C@@H]1CN([C@@H](C)CO)S(=O)(=O)c2ccc(C#Cc3ccccc3F)cc2O[C@@H]1CN(C)C(=O)c1ccc2c(c1)OCO2` | -33.41 |
| 13 | `C[C@@H]1CN([C@@H](C)CO)C(=O)c2cc(NC(=O)Nc3cccc4ccccc34)ccc2O[C@@H]1CN(C)Cc1ccccc1` | -30.11 |
| 14 | `COc1cccc(S(=O)(=O)N(C)C[C@@H]2OCc3ccccc3-c3c(n(C)c4ccccc34)C(=O)N([C@H](C)CO)C[C@H]2C)c1` | -37.3 |
| 15 | `O=C(C[C@H]1CC[C@H]2[C@@H](COC[C@@H](O)CN2Cc2cc(F)ccc2F)O1)N[C@H]1CCN(Cc2ccccc2)C1` | -21.24 |
| 16 | `O=C(C[C@@H]1CC[C@@H]2[C@H](COC[C@@H](O)CN2C(=O)Nc2ccc(C(F)(F)F)cc2)O1)NC1Cc2ccccc2C1` | -58.82 |
| 17 | `CC(C)C#Cc1ccc2c(c1)O[C@@H](CN(C)Cc1cccnc1)[C@H](C)CN([C@H](C)CO)S2(=O)=O` | -50.07 |
| 18 | `COc1ccccc1CN(C)C[C@@H]1OCc2ccccc2-c2c(n(C)c3ccccc23)C(=O)N([C@H](C)CO)C[C@@H]1C` | -25.89 |
| 19 | `N#Cc1cccc(-c2ccc([C@@H]3[C@@H](CO)N4CCCCN(C(=O)Nc5ccccc5)C[C@H]34)cc2)c1` | -34.48 |
| 20 | `C[C@H]1CN([C@@H](C)CO)S(=O)(=O)c2ccc(-c3cccc(F)c3)cc2O[C@@H]1CN(C)C(=O)Nc1cc(F)ccc1F` | -58.4 |
| 21 | `C[C@@H]1CCCCO[C@@H](CN(C)C)[C@@H](C)CN([C@H](C)CO)C(=O)c2cc(NC(=O)Nc3ccc(C(F)(F)F)cc3)ccc2O1` | -22.7 |
| 22 | `O=C(Cc1cccnc1)N1CC(=O)N2[C@H](CO)[C@@H](c3ccc(C#CC4CCCCC4)cc3)[C@@H]2C1` | -23.08 |
| 23 | `N#Cc1cccc(-c2ccc([C@@H]3[C@H](CO)N4CCCCN(C(=O)Nc5cccc(F)c5)C[C@@H]34)cc2)c1` | -76.24 |
| 24 | `C[C@@H]1CN([C@@H](C)CO)C(=O)c2cc(NC(=O)Nc3ccc(C(F)(F)F)cc3)ccc2O[C@@H]1CN(C)C` | -31.94 |
| 25 | `O=C(Nc1ccccc1F)N1CC(=O)N2[C@H](CO)[C@@H](c3ccc(-c4ccccc4)cc3)[C@H]2C1` | -25.01 |
| 26 | `C[C@@H]1CN([C@H](C)CO)C(=O)c2cc(NC(=O)Nc3ccccc3)ccc2O[C@H]1CN(C)Cc1ccc(-c2ccccc2)cc1` | -32.42 |
| 27 | `Cc1cccc(S(=O)(=O)N2CCCCN3[C@H](CO)[C@@H](c4ccc(C#C[C@H](C)O)cc4)[C@H]3C2)c1` | -36.05 |
| 28 | `O=C(C1CC1)N1CC(=O)N2[C@H](C1)[C@@H](c1ccc(C#Cc3cccc(F)c3)cc1)[C@@H]2CO` | -52.44 |
| 29 | `CO[C@H]1CN(C)C(=O)c2cc(NS(=O)(=O)c3cccc(F)c3)ccc2OC[C@@H](C)N(Cc2cc(F)ccc2F)C[C@H]1C` | -54.4 |
| 30 | `C[C@@H]1CN([C@@H](C)CO)C(=O)c2cccc(NC(=O)Nc3ccc(C(F)(F)F)cc3)c2O[C@@H]1CN(C)C(=O)Nc1ccccc1` | -35.08 |
| 31 | `CCCNC(=O)N1CC2(CCN(C(=O)Nc3cccc(F)c3)CC2)c2c(n(C)c3cc(OC)ccc23)[C@@H]1CO` | -29.87 |
| 32 | `C[C@@H]1CCCCO[C@H](CN(C)Cc2ccc(C(F)(F)F)cc2)[C@@H](C)CN([C@@H](C)CO)C(=O)c2cc(NS(=O)(=O)c3ccccc3)ccc2O1` | -64.04 |
| 33 | `COc1ccccc1-c1ccc([C@H]2[C@H](CO)N3CCCCN(C(=O)NC4CCCC4)C[C@@H]23)cc1` | -25.04 |

The last 2 entries again:

C[C@@H]1CCCCO[C@H](CN(C)Cc2ccc(C(F)(F)F)cc2)[C@@H](C)CN([C@@H](C)CO)C(=O)c2cc(NS(=O)(=O)c3ccccc3)ccc2O1 read activity change (Venus) -64.04%.
COc1ccccc1-c1ccc([C@H]2[C@H](CO)N3CCCCN(C(=O)NC4CCCC4)C[C@@H]23)cc1 read activity change (Venus) -25.04%.